Results are given in words; binding and its absence hold for the method and conditions named. In cells and extracts the contact can be indirect. A result given as binding can be weak or reduced; the word gives no strength. Tags and fused reporters may be left off the sequences shown.
Target: human myc-tagged essential myosin light chain (ELC) (human)
Assay: co-IP; human myc-tagged ELC and deletion variants of human flag-tagged NEK9 overexpressed; IP and immunoblot, interaction intensity quantified

B1: human flag-tagged NEK9^Middle(309-726)del (enzyme, UniProt Q8TD19)
chain: MSVLGEYERHCDSINSDFGSESGGCGDSSPGPSASQGPRAGGGAAEQEELHYIPIRVLGRGAFGEATLYRRTEDDSLVVWKEVDLTRLSEKERRDALNEIVILALLQHDNIIAYYNHFMDNTTLLIELEYCNGGNLYDKILRQKDKLFEEEMVVWYLFQIVSAVSCIHKAGILHRDIKTLNIFLTKANLIKLGDYGLAKKLNSEYSMAETLVGTPYYMSPELCQGVKYNFKSDIWAVGCVIFELLTLKRTFDATNPLNLCVKIVQGIRAMEVDSSQYSLELIQMVHSCLDQDPEQRPTADELLDRPLLVLNSKTIRSNSSGLSIGTVFQSSSPGGGGGGGGGEEEDSQQESETPDPSGGFRGTMEADRGMEGLISPTEAMGNSNGASSSCPGWLRKELENAEFIPMPDSPSPLSAAFSESEKDTLPYEELQGLKVASEAPLEHKPQVEASSPRLNPAVTCAGKGTPLTPPACACSSLQVEVERLQGLVLKCLAEQQKLQQENLQIFTQLQKLNKKLEGGQQVGMHSKGTQTAKEEMEMDPKPDLDSDSWCLLGTDSCRPSL
binding: binds

— PMC9585074
